Measured values as given in article PMC5289628.
No constants are given. Whether binding was seen depends on the method and setting. Binding seen in cells or lysates may run through a third protein. Some entries that bind do so weakly or less than the wild type.

Sequences of proteins named here, by UniProt entry; tags and fusion partners are left off. A change or cut given only in a name is not applied to a line headed by its entry. A line that says so, or that is headed by a name, gives the form on record, which may keep a tag or linker.
3xFLAG-HOXA10 (E1C8Y7, form named): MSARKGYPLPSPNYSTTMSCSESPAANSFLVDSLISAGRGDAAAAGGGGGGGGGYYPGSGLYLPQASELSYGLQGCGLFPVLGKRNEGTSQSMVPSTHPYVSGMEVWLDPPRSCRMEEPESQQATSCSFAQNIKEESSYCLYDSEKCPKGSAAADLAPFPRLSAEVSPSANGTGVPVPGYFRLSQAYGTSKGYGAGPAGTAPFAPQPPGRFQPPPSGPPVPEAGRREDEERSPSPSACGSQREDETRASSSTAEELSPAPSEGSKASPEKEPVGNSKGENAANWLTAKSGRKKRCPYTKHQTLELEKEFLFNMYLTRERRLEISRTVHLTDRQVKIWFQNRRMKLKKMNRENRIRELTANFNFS
UniProt P24344: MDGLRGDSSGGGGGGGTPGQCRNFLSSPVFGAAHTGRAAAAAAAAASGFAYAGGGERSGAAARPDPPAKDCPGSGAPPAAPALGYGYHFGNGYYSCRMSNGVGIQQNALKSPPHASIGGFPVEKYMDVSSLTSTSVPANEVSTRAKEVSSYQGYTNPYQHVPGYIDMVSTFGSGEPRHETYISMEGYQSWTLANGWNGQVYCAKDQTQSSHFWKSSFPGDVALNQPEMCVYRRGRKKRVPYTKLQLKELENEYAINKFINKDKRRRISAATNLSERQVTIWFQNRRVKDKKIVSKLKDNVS

Molecular target: T1, CTCF (the CCCTC-binding factor), endogenous (chicken (endogenous in DF1)) (UniProt Q08705)
T1 sequence: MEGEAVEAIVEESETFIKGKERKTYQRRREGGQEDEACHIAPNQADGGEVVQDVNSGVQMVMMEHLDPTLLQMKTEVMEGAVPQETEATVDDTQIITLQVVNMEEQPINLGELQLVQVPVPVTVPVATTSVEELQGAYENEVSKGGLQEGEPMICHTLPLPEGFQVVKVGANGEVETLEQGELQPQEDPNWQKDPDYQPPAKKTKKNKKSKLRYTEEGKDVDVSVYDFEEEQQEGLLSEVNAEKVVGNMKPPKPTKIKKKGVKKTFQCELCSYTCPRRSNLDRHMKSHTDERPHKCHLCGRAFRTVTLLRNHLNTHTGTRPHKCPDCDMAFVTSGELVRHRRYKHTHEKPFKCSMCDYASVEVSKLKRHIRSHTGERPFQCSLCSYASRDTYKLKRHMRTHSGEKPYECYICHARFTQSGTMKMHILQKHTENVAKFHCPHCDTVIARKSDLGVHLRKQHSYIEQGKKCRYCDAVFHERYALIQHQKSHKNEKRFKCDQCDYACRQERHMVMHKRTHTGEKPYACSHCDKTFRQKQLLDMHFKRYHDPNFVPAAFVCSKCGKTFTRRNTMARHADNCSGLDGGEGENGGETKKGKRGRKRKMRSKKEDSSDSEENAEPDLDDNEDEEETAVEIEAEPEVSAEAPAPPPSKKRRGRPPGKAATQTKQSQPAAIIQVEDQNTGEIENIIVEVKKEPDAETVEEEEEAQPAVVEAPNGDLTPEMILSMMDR
Assay: proximity ligation; Duolink In Situ PLA in chicken DF1 cells fixed with 4% PFA; primary antibodies m-αFLAG M2 + rb-αCTCF (FLAG-HOX and CTCF) or m-αHA + rb-αRAD21 (HA-CTCF and RAD21); confocal imaging, contacts counted per nucleus

| Substance | binding |
| --- | --- |
| 3xFLAG-HOXA10 (from UniProt E1C8Y7 1-364) | binds |
| 3xFLAG-HOXD13 (from UniProt P24344 1-301) | binds weakly |
